# Laboratory results: PubChem BioAssay AID720505 (Drosophila RNAi Screening Center, 2013)
# Purpose: 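Genes needed for store-operated calcium entry in fly cells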 (primary screen)
# Cells: Drosophila S2R+ cells
# Knock-down reagent: long dsRNA against Drosophila genes
# Challenge: thapsigargin (2 µM) in calcium-free buffer to empty internal stores, then 2 mM calcium added back
# Measurement: 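Stores emptied by 2 µM thapsigargin without calcium, then 2 mM calcium re-added; fluo-4 fluorescence followed by FLIPR in 384-well plates, per-well averaged endpoint, raw; two screen passes, some wells retested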
# Direction: calcium signal: higher = more calcium entry after store depletion
# Active means: 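Knock-downs counted as hits when calcium entry dropped relative to STIM1 positive and Rho1 negative controls present on each plate; roughly 1500 genes called, with reductions of differing size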
# Meaning of the calls: active = called as lowering calcium entry; inactive = not called
# The deposit covers about 20,000 reagents; shown is an unselected part of those with a known target gene and a result. In the full data, about 2,100 (10%) were called active. 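Raw plate signals without normalisation; calls rest on control-based scores that were not deposited; replicate 2 separates called from uncalled poorly.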 Unmarked entries are inactive. Names joined by + are all predicted targets of the reagent. The record does not give: the amount of reagent, the time to read-out.
target,dsRNA,"calcium signal, replicate 1","calcium signal, replicate 2"
Jheh1 (Juvenile hormone epoxide hydrolase 1),DRSC06529,79.8 (active),106
Pngl (PNGase-like),DRSC04914,135,188
CycJ (Cyclin J),DRSC08653,89.9,99.5
CG32095,DRSC22615,85.4,191
asRNA:CR43468 + Lfg,DRSC06853,127,188
CG34041,DRSC22276,115,185
ImpE3 (Ecdysone-inducible gene E3),DRSC16716,106,166
CG1578,DRSC19729,130,128
kek6 (kekkon 6),DRSC15299,80,148
ng4 (new glue 4),DRSC18805,82.5 (active),130
CG11951,DRSC14442,162,132
Cp16 (Chorion protein 16),DRSC11119,113,84.6
CG10581,DRSC11623,109,106
CG30447,DRSC05820,122,81
Gr89a (Gustatory receptor 89a),DRSC15023,114,140
Or7a (Odorant receptor 7a),DRSC18691,173,124
lncRNA:CR30055 (long non-coding RNA:CR30055),DRSC22439,154,211
Tdg (Thymine DNA glycosylase),DRSC17169,113,141
CG30283,DRSC04071,138,129
CG11044,DRSC06026,160,129
CG5921,DRSC18390,255,122
CG30110,DRSC05686,105,93
CG17230,DRSC15203,93,109
STUB1 (STIP1 homology and U-box containing protein 1),DRSC03282,149,133
CG2577,DRSC19863,107,90.5
CG2577,DRSC23309,124,135
tyn (trynity),DRSC20652,195,98
CG7084,DRSC16194,173,187
CG7432,DRSC16243,249,198
CG33757,DRSC05159,138,94.7
MESK2 + CG10494,DRSC04259,127,108
tll (tailless),DRSC17085,195,144
bora (aurora borealis),DRSC10744,99.1,124
CG45067,DRSC08414,100,102

Copied from the entries so far (5 entries):
target,dsRNA,"calcium signal, replicate 1","calcium signal, replicate 2"
ng4 (new glue 4),DRSC18805,82.5 (active),130
CG11951,DRSC14442,162,132
Cp16 (Chorion protein 16),DRSC11119,113,84.6
CG10581,DRSC11623,109,106
CG30447,DRSC05820,122,81
